Measured values: PMC3917433
Results are given in words; binding and its absence hold for the method and conditions named. Some binding calls cover weakened binding; strength is not graded here.

Chains of the proteins cited; added tags and fusions are not shown. Lines headed by an entry give the natural chain unless they say otherwise; changes in a name come on top. A line that says so, or that is headed by a name, gives the form on record, which may keep a tag or linker.
PRP40 pre-mRNA processing factor 40 B (PRPF40B) (Q6NWY9, form named): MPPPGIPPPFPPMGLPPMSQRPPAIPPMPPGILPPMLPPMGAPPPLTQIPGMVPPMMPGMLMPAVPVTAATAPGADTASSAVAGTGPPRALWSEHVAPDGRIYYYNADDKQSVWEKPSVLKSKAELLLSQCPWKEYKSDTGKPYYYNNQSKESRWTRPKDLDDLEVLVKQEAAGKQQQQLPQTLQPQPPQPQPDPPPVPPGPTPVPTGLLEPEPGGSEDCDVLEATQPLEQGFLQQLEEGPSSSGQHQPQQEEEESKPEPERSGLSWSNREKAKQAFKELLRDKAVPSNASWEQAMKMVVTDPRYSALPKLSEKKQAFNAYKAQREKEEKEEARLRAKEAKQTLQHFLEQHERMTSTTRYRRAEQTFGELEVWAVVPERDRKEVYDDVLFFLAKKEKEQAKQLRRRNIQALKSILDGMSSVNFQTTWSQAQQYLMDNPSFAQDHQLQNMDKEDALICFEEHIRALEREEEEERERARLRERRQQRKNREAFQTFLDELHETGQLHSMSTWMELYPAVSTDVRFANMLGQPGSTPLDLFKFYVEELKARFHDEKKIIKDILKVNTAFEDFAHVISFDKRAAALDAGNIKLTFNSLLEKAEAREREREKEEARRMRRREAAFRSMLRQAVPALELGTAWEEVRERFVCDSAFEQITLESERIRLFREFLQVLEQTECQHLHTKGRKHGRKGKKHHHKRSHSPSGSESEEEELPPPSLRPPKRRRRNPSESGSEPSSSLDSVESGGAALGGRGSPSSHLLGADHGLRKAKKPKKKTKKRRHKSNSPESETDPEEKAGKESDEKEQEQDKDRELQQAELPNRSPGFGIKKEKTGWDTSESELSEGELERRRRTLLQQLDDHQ
UniProt Q9UER7: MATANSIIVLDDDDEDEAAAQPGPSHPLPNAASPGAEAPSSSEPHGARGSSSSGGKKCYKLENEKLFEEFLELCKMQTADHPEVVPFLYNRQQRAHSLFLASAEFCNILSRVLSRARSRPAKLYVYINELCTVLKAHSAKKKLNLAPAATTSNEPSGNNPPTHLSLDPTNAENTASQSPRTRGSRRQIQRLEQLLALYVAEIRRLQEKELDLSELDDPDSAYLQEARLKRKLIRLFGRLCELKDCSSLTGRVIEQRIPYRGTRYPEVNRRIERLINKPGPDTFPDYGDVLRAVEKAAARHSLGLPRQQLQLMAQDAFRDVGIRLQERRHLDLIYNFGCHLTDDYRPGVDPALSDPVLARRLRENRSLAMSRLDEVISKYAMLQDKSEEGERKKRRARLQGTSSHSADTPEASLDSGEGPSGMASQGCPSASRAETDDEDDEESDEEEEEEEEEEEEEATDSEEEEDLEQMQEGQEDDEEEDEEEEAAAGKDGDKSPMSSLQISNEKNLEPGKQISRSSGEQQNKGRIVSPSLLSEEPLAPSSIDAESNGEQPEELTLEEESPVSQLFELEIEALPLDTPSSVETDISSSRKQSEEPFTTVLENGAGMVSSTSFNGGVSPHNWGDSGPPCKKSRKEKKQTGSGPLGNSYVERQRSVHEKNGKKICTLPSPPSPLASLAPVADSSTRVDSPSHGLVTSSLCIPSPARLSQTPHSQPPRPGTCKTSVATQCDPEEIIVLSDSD
UniProt Q8N3F8: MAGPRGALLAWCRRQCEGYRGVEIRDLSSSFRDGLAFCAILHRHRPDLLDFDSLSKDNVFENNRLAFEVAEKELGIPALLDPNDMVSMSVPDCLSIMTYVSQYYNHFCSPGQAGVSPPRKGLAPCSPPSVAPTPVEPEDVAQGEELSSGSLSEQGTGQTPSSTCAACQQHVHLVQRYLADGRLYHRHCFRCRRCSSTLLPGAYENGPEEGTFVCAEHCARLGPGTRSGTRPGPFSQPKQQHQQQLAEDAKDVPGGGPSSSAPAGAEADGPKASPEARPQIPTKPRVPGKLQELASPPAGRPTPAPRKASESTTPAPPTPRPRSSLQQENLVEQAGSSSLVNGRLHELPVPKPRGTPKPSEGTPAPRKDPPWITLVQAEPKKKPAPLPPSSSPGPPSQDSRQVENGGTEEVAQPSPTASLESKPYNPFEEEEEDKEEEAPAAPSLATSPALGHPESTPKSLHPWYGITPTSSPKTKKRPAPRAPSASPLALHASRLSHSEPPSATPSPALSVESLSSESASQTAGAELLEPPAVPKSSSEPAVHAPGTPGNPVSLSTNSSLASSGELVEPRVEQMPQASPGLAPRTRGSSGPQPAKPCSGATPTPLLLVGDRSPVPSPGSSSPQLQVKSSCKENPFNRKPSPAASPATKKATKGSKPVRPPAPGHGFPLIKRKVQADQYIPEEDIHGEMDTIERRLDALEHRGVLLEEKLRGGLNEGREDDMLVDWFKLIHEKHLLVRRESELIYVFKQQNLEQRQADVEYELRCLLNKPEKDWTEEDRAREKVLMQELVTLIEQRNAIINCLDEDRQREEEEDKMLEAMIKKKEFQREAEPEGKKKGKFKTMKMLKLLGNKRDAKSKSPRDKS
UniProt Q9BX40: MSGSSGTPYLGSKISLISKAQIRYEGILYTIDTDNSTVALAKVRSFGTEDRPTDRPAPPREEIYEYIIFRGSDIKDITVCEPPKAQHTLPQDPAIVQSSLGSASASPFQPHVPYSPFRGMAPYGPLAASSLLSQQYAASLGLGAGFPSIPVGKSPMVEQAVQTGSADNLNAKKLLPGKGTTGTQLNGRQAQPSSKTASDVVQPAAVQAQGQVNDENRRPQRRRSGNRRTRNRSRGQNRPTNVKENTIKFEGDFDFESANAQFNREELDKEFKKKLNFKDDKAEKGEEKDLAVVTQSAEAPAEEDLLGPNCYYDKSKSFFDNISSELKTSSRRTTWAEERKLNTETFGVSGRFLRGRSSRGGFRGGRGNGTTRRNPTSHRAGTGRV
SAPS domain family, member 2 (SAPS2) (O75170, form named): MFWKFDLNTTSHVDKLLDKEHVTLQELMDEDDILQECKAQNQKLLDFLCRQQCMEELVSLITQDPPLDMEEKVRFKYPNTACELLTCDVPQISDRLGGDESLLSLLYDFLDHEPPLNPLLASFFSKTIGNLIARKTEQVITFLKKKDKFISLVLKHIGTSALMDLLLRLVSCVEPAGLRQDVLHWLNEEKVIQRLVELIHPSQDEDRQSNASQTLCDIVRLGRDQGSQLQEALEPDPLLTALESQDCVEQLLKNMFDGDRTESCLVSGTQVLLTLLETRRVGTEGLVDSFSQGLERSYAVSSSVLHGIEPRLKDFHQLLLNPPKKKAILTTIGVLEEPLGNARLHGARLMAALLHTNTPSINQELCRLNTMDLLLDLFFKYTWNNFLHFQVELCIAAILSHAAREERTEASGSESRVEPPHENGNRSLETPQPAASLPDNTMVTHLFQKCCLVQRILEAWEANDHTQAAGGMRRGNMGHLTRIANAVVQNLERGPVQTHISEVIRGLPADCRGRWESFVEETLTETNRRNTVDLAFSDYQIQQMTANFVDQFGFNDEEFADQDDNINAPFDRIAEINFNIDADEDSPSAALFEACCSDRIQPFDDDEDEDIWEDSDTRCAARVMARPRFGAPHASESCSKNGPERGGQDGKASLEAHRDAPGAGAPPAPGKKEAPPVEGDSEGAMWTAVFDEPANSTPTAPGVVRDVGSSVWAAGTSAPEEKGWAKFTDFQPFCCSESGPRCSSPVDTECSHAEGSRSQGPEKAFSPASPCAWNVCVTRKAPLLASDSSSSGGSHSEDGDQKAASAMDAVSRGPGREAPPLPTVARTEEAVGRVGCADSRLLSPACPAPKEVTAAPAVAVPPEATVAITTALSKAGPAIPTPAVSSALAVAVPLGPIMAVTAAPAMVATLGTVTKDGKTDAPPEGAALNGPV
UniProt P15923: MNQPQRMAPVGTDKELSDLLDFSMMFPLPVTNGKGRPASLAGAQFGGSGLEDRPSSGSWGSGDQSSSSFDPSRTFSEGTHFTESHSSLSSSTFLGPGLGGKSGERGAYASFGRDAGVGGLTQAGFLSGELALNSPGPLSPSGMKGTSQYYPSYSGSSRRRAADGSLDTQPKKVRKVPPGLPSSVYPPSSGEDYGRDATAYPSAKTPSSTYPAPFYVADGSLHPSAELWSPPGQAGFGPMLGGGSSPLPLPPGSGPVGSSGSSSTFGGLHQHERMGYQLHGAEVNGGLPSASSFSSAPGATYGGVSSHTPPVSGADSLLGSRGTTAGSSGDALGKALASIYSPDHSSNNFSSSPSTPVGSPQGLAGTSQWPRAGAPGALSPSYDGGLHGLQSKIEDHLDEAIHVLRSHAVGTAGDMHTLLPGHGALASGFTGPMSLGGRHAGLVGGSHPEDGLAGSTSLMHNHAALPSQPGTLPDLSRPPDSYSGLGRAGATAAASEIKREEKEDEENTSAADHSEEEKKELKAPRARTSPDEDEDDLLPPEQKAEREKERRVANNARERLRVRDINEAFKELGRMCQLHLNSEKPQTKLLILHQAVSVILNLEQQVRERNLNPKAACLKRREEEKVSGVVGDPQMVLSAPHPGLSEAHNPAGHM
UniProt P13202: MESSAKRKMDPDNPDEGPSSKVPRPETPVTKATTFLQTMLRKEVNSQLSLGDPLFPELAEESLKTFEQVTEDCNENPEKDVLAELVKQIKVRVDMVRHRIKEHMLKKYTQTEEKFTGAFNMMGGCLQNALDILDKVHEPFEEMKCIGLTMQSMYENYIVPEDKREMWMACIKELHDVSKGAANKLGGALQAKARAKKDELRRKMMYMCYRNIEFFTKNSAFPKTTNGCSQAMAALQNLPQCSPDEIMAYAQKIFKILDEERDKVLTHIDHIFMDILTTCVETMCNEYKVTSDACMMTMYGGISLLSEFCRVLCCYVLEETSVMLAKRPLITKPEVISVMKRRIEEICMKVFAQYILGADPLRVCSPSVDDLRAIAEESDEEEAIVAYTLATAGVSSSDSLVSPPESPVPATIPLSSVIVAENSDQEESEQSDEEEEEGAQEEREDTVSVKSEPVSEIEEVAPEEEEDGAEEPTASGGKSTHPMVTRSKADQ

How the values were obtained:
[1] = target: PRP40 pre-mRNA processing factor 40 B (PRPF40B) (human) (UniProt Q6NWY9); experiment: peptide or protein array; isolated IE1 incubated 1 h at room temperature with two 22 cm x 22 cm PVDF membranes (imaGenes Unipex_1, _2) presenting up to 7390 GST-tagged human proteins from crude E. coli extracts, each spotted in doublets; anti-IE1 antibody 24 h at 4 °C, HRP-coupled secondary antibody, enhanced chemiluminescence; cutoffs by the background index; only the binder purified
[2] = target: Death-associated protein 6 (DAXX) (human) (UniProt Q9UER7); experiment: peptide or protein array; only the binder purified
[3] = target: KIAA1668 protein (human) (UniProt Q8N3F8); experiment: peptide or protein array; only the binder purified
[4] = target: T1, Metastasis suppressor 1 (MTSS1) (human) (UniProt O43312); experiment: peptide or protein array; only the binder purified
T1 sequence: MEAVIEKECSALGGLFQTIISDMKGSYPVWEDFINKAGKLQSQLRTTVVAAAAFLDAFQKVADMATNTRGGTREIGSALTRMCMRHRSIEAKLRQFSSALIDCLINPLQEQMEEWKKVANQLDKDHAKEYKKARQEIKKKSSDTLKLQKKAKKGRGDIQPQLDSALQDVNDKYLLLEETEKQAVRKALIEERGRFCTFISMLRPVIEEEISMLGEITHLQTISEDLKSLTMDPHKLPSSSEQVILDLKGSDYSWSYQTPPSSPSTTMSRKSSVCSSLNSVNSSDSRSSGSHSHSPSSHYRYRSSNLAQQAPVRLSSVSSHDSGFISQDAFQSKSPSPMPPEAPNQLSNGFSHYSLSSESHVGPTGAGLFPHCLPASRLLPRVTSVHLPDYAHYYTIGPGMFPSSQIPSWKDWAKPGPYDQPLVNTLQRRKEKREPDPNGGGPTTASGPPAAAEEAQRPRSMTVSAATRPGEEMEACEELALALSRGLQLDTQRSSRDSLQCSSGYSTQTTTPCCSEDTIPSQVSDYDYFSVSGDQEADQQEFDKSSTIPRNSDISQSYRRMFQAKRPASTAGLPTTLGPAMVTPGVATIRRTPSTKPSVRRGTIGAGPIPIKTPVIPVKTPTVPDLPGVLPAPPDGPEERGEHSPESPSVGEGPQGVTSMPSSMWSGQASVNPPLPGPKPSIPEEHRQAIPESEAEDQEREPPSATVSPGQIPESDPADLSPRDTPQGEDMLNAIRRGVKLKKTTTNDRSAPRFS

[5] = target: T2, Actin-bundling protein with BAIAP2 homology (ABBA-1) (human) (UniProt Q765P7); experiment: peptide or protein array; only the binder purified
T2 sequence: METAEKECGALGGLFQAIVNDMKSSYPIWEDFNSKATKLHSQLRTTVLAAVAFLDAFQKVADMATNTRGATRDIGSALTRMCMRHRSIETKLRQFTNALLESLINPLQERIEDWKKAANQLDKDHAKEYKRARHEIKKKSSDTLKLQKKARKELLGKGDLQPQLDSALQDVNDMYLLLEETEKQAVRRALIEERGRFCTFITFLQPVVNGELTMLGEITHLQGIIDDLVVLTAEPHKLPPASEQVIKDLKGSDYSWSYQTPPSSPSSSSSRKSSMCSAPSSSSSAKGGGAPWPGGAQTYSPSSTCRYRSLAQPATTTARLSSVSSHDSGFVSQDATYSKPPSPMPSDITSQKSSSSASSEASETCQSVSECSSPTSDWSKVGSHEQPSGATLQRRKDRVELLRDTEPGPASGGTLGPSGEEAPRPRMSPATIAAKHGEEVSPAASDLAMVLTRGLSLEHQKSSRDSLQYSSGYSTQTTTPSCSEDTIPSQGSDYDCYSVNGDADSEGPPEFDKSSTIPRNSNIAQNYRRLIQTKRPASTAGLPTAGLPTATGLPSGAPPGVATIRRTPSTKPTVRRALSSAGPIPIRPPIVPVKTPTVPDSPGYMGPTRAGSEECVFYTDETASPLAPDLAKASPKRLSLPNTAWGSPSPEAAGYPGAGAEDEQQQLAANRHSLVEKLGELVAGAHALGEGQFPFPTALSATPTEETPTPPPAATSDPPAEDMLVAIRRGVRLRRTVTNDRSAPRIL

[6] = target: LSM14B, SCD6 homolog B (human) (UniProt Q9BX40); experiment: peptide or protein array; only the binder purified
[7] = target: SAPS domain family, member 2 (SAPS2) (human) (UniProt O75170); experiment: peptide or protein array; only the binder purified
[8] = target: T3, Cell division cycle 25 homolog A (CDC25A) (human) (UniProt P30304); experiment: peptide or protein array; only the binder purified
T3 sequence: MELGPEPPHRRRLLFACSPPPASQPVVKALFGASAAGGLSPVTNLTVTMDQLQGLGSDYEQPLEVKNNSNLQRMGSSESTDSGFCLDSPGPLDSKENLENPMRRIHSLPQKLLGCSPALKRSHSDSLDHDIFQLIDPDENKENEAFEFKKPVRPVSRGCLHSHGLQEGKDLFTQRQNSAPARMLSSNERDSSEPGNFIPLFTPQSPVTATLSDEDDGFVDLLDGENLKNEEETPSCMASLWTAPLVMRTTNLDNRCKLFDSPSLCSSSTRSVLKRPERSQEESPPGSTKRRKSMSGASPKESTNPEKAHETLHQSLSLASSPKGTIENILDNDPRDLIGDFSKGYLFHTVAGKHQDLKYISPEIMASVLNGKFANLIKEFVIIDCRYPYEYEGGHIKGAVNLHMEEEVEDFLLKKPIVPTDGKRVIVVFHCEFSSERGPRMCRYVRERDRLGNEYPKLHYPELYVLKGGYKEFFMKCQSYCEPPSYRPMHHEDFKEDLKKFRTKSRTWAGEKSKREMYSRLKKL

[9] = target: Transcription factor 3 (E2A immunoglobulin enhancer binding factors E12/E47) (TCF3) (human) (UniProt P15923); experiment: peptide or protein array; only the binder purified
[10] = target: Myeloid/lymphoid or mixed-lineage leukemia 2 (MLL2) (human) (UniProt O14686); experiment: peptide or protein array; only the binder purified

Measured: binding

Human cytomegalovirus immediate-early protein 1 (from UniProt P13202 1-491)
binds: all assays above
